# Laboratory results from the supplement of paper PMC8728848.
# The other results are listed elsewhere or left out.
# B1: ArathEULS3 TAP (Arabidopsis thaliana) (protein)
# chain: IDENLYFQGGSMDEKTTGWRGGHVVEGLAGELEQLRARLEHHPQGQREPGGGGSLEITSLYKKAGFMEHHHQHHRHHQRDDGEDDRQSFGVPPPHVDAPPQPHGLYQSQPHFDPYAPTPQAPAPYRSETQFEPHAPPPYRSEPYFETPAPPPSFGHVSHVGHQSPNESYPPEHHRYGGYQQPSNSLLESHGDHSGVTHVAHHSSNQPQSSSGVYHKPDENRLPDNLAGLAGRATVKVYSKAEPNYNLTIRDGKVILAPADPSDEAQHWYKDEKYSTKVKDADGHPCFALVNKATGEAMKHSVGATHPVHLIRYVPDKLDESVLWTESKDFGDGYRTIRMVNNTRLNVDAYHGDSKSGGVRDGTTIVLWDWNKGDNQLWKIFPF
# Key:
# Experiment in all cases: glycan array binding signal (z-score within array); higher = stronger binding
# Details in all cases: glycan notation: IUPAC condensed, linker removed
# [1] = target: Neu5Ac(a2-3)Gal(b1-4)GlcNAc(b1-2)[Neu5Ac(a2-3)Gal(b1-4)GlcNAc(b1-4)]Man(a1-3)[GlcNAc(b1-4)][Neu5Ac(a2-3)Gal(b1-4)GlcNAc(b1-2)[Neu5Ac(a2-3)Gal(b1-4)GlcNAc(b1-6)]Man(a1-6)]Man(b1-4)GlcNAc(b1-4)GlcNAc
# Summary of the method: (§1)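 Arrays were curated from the Consortium for Functional Glycomics database, 3228 in total, and kept only where the protein sequence was available. Binding is expressed as a within-array Z-score. This score was averaged across arrays of the same protein sequence at different concentrations or buffers and across linkers, and negative values can be read as non-binding.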
# [2] = target: Neu5Ac(a2-3)Gal(b1-4)GlcNAc(b1-2)[Neu5Ac(a2-3)Gal(b1-4)GlcNAc(b1-4)]Man(a1-3)[GlcNAc(b1-4)][Neu5Ac(a2-3)Gal(b1-4)GlcNAc(b1-4)Man(a1-6)]Man(b1-4)GlcNAc(b1-4)GlcNAc
# Summary of the method: as §1
# [3] = target: Neu5Ac(a2-3)Gal(b1-4)GlcNAc(b1-2)[Neu5Ac(a2-3)Gal(b1-4)GlcNAc(b1-6)]Man(a1-6)[Neu5Ac(a2-3)Gal(b1-4)GlcNAc(b1-2)Man(a1-3)][GlcNAc(b1-4)]Man(b1-4)GlcNAc(b1-4)GlcNAc
# Summary of the method: as §1
# [4] = target: Neu5Ac(a2-3)Gal(b1-4)GlcNAc(b1-3)Gal
# Summary of the method: as §1
# [5] = target: Neu5Ac(a2-3)Gal(b1-4)GlcNAc(b1-3)Gal(b1-3)GlcNAc
# Summary of the method: as §1
# [6] = target: Neu5Ac(a2-3)Gal(b1-4)GlcNAc(b1-3)Gal(b1-4)GlcNAc
# Summary of the method: as §1
# [7] = target: Neu5Ac(a2-3)Gal(b1-4)GlcNAc(b1-3)Gal(b1-4)GlcNAc(b1-2)Man(a1-3)[Neu5Ac(a2-3)Gal(b1-4)GlcNAc(b1-3)Gal(b1-4)GlcNAc(b1-2)Man(a1-6)]Man(b1-4)GlcNAc(b1-4)GlcNAc
# Summary of the method: as §1
# [8] = target: Neu5Ac(a2-3)Gal(b1-4)GlcNAc(b1-3)Gal(b1-4)GlcNAc(b1-3)Gal(b1-4)GlcNAc
# Summary of the method: as §1
# [9] = target: Neu5Ac(a2-3)Gal(b1-4)GlcNAc(b1-3)Gal(b1-4)GlcNAc(b1-3)Gal(b1-4)GlcNAc(b1-2)Man(a1-3)[Neu5Ac(a2-3)Gal(b1-4)GlcNAc(b1-3)Gal(b1-4)GlcNAc(b1-3)Gal(b1-4)GlcNAc(b1-2)Man(a1-6)]GalNAc
# Summary of the method: as §1
# [10] = target: Neu5Ac(a2-3)Gal(b1-4)GlcNAc(b1-3)Gal(b1-4)GlcNAc(b1-3)GalNAc
# Summary of the method: as §1
# [11] = target: Neu5Ac(a2-3)Gal(b1-4)GlcNAc(b1-3)Gal(b1-4)GlcNAc(b1-3)[Neu5Ac(a2-3)Gal(b1-4)GlcNAc(b1-3)Gal(b1-4)GlcNAc(b1-6)]GalNAc
# Summary of the method: as §1
# [12] = target: Neu5Ac(a2-3)Gal(b1-4)GlcNAc(b1-3)Gal(b1-4)GlcNAc(b1-6)[Gal(b1-3)]GalNAc
# Summary of the method: as §1
# [13] = target: Neu5Ac(a2-3)Gal(b1-4)GlcNAc(b1-3)Gal(b1-4)[Fuc(a1-3)]GlcNAc
# Summary of the method: as §1
# [14] = target: Neu5Ac(a2-3)Gal(b1-4)GlcNAc(b1-3)GalNAc
# Summary of the method: as §1
# [15] = target: Neu5Ac(a2-3)Gal(b1-4)GlcNAc(b1-3)[Neu5Ac(a2-3)Gal(b1-4)GlcNAc(b1-6)]GalNAc
# Summary of the method: as §1
# [16] = target: Neu5Ac(a2-3)Gal(b1-4)GlcNAc(b1-6)GalNAc
# Summary of the method: as §1
# [17] = target: Neu5Ac(a2-3)Gal(b1-4)GlcNAc(b1-6)[Gal(b1-3)]GalNAc
# Summary of the method: as §1
# [18] = target: Neu5Ac(a2-3)Gal(b1-4)GlcNAc(b1-6)[Neu5Ac(a2-3)Gal(b1-3)]GalNAc
# Summary of the method: as §1
# [19] = target: Neu5Ac(a2-3)Gal(b1-4)GlcNAc6S
# Summary of the method: as §1
# [20] = target: Neu5Ac(a2-3)Gal(b1-4)[Fuc(a1-3)]GlcNAc
# Summary of the method: as §1
# [21] = target: Neu5Ac(a2-3)Gal(b1-4)[Fuc(a1-3)]GlcNAc(b1-2)Man
# Summary of the method: as §1
# [22] = target: Neu5Ac(a2-3)Gal(b1-4)[Fuc(a1-3)]GlcNAc(b1-3)Gal
# Summary of the method: as §1
# [23] = target: Neu5Ac(a2-3)Gal(b1-4)[Fuc(a1-3)]GlcNAc(b1-3)Gal(b1-4)GlcNAc
# Summary of the method: as §1
# [24] = target: Neu5Ac(a2-3)Gal(b1-4)[Fuc(a1-3)]GlcNAc(b1-3)Gal(b1-4)[Fuc(a1-3)]GlcNAc(b1-3)Gal(b1-4)[Fuc(a1-3)]GlcNAc
# Summary of the method: as §1
# [25] = target: Neu5Ac(a2-3)Gal(b1-4)[Fuc(a1-3)]GlcNAc(b1-3)GalNAc
# Summary of the method: as §1
# [26] = target: Neu5Ac(a2-3)Gal(b1-4)[Fuc(a1-3)]GlcNAc(b1-6)[Gal(b1-3)]GalNAc
# Summary of the method: as §1
# [27] = target: Neu5Ac(a2-3)Gal(b1-4)[Fuc(a1-3)]GlcNAc(b1-6)[Neu5Ac(a2-3)Gal(b1-3)]GalNAc
# Summary of the method: as §1
# [28] = target: Neu5Ac(a2-3)Gal(b1-4)[Fuc(a1-3)]GlcNAc6S
# Summary of the method: as §1
# [29] = target: Neu5Ac(a2-3)Gal6S(b1-4)GlcNAc
# Summary of the method: as §1
# [30] = target: Neu5Ac(a2-3)Gal6S(b1-4)[Fuc(a1-3)]GlcNAc
# Summary of the method: as §1
# [31] = target: Neu5Ac(a2-3)GalNAc
# Summary of the method: as §1
# [32] = target: Neu5Ac(a2-3)GalNAc(b1-4)GlcNAc
# Summary of the method: as §1
# [33] = target: Neu5Ac(a2-3)[GalNAc(b1-4)]Gal(b1-4)Glc
# Summary of the method: as §1
# [34] = target: Neu5Ac(a2-3)[GalNAc(b1-4)]Gal(b1-4)GlcNAc
# Summary of the method: as §1
# [35] = target: Neu5Ac(a2-3)[GalNAc(b1-4)]Gal(b1-4)GlcNAc(b1-3)GalNAc
# Summary of the method: as §1
# [36] = target: Neu5Ac(a2-3)[Neu5Ac(a2-6)]GalNAc
# Summary of the method: as §1
# [37] = target: Neu5Ac(a2-6)Gal
# Summary of the method: as §1
# [38] = target: Neu5Ac(a2-6)Gal(b1-3)GlcNAc(b1-3)[Gal(b1-4)GlcNAc(b1-6)]Gal(b1-4)Glc
# Summary of the method: as §1
# [39] = target: Neu5Ac(a2-6)Gal(b1-4)Glc
# Summary of the method: as §1
# [40] = target: Neu5Ac(a2-6)Gal(b1-4)GlcNAc
# Summary of the method: as §1
# [41] = target: Neu5Ac(a2-6)Gal(b1-4)GlcNAc(b1-2)Man
# Summary of the method: as §1
# [42] = target: Neu5Ac(a2-6)Gal(b1-4)GlcNAc(b1-2)Man(a1-3)Man(b1-4)GlcNAc(b1-4)GlcNAc
# Summary of the method: as §1
# [43] = target: Neu5Ac(a2-6)Gal(b1-4)GlcNAc(b1-2)Man(a1-3)[Gal(b1-4)GlcNAc(b1-2)Man(a1-6)]Man(b1-4)GlcNAc(b1-4)GlcNAc
# Summary of the method: as §1
# [44] = target: Neu5Ac(a2-6)Gal(b1-4)GlcNAc(b1-2)Man(a1-3)[GlcNAc(b1-2)Man(a1-6)]Man(b1-4)GlcNAc(b1-4)GlcNAc
# Summary of the method: as §1
# [45] = target: Neu5Ac(a2-6)Gal(b1-4)GlcNAc(b1-2)Man(a1-3)[GlcNAc(b1-4)][Neu5Ac(a2-6)Gal(b1-4)GlcNAc(b1-2)Man(a1-6)]Man(b1-4)GlcNAc(b1-4)GlcNAc
# Summary of the method: as §1
binder,measurement,setting,value
B1,glycan array binding signal (z-score),[1],-1.75
same,glycan array binding signal (z-score),[2],-0.084
same,glycan array binding signal (z-score),[3],-1.1
same,glycan array binding signal (z-score),[4],-0.293
same,glycan array binding signal (z-score),[5],-0.111
same,glycan array binding signal (z-score),[6],-1.37
same,glycan array binding signal (z-score),[7],-0.38
same,glycan array binding signal (z-score),[8],0.53
same,glycan array binding signal (z-score),[9],-0.083
same,glycan array binding signal (z-score),[10],-1
same,glycan array binding signal (z-score),[11],0.575
same,glycan array binding signal (z-score),[12],-1.56
same,glycan array binding signal (z-score),[13],-1.02
same,glycan array binding signal (z-score),[14],-0.09
same,glycan array binding signal (z-score),[15],0.029
same,glycan array binding signal (z-score),[16],0.426
same,glycan array binding signal (z-score),[17],0.09
same,glycan array binding signal (z-score),[18],-1.05
same,glycan array binding signal (z-score),[19],-0.296
same,glycan array binding signal (z-score),[20],-0.386
same,glycan array binding signal (z-score),[21],0.573
same,glycan array binding signal (z-score),[22],-0.37
same,glycan array binding signal (z-score),[23],2.91
same,glycan array binding signal (z-score),[24],0.061
same,glycan array binding signal (z-score),[25],1.63
same,glycan array binding signal (z-score),[26],-0.527
same,glycan array binding signal (z-score),[27],-0.792
same,glycan array binding signal (z-score),[28],-0.75
same,glycan array binding signal (z-score),[29],-1.36
same,glycan array binding signal (z-score),[30],-1.64
same,glycan array binding signal (z-score),[31],0.618
same,glycan array binding signal (z-score),[32],-1.09
same,glycan array binding signal (z-score),[33],0.447
same,glycan array binding signal (z-score),[34],-1.12
same,glycan array binding signal (z-score),[35],0.557
same,glycan array binding signal (z-score),[36],-0.14
same,glycan array binding signal (z-score),[37],-0.304
same,glycan array binding signal (z-score),[38],-1.27
same,glycan array binding signal (z-score),[39],0.93
same,glycan array binding signal (z-score),[40],-0.612
same,glycan array binding signal (z-score),[41],0.021
same,glycan array binding signal (z-score),[42],-0.281
same,glycan array binding signal (z-score),[43],-0.678
same,glycan array binding signal (z-score),[44],-0.353
same,glycan array binding signal (z-score),[45],-0.049

# In a second layout: entries from further up
binder	measurement	setting	value
B1	glycan array binding signal (z-score)	[5]	-0.111
same	glycan array binding signal (z-score)	[26]	-0.527
